Results are given in words; binding and its absence hold for the method and conditions named.
Molecular target: T1, Pseudomonas aeruginosa OprC (PA3790), OM-purified, wild type (P. aeruginosa PAO1) (UniProt G3XD89)
T1 sequence: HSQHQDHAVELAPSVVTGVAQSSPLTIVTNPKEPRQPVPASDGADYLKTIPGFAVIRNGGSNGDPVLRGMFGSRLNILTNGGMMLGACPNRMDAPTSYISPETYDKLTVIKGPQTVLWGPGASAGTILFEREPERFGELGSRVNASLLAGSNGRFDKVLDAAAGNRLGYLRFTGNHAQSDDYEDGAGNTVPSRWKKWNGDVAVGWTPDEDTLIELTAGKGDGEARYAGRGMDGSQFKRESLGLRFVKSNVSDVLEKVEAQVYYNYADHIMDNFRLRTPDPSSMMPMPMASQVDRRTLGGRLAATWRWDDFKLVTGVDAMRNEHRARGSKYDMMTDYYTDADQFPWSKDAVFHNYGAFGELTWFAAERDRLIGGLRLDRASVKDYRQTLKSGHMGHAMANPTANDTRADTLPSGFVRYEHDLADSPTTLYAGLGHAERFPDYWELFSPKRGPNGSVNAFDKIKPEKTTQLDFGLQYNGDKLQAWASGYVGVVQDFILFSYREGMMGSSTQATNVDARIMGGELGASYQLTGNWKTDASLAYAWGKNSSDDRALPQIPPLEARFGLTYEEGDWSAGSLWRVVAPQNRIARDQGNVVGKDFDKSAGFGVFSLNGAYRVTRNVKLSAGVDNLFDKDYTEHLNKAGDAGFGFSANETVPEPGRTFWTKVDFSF
Test: SEC

Sequences of proteins named here, by UniProt entry; tags and fusion partners are left off. Residues count along the entry.
UniProt P00282, 21-148: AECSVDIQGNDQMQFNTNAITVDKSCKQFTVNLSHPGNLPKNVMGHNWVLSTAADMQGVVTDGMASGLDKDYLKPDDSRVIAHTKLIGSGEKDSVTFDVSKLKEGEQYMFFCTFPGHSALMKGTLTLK

binding: no binding
Substance: azurin (from UniProt P00282 21-148)

Reference: doi:10.1101/2020.06.04.134395
